PubChem BioAssay AID2685 (National Center for Advancing Translational Sciences (NCATS), 2010)
This is one part of the list. Further columns of the screen follow, without active or inactive calls. Compounds called inactive in the main read-out are mostly missing here. The note in brackets gives the kind of curve behind each potency; many fits are weak.

Test: qHTS Assay for Lipid Storage Modulators in Drosophila S3 Cells;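 for cell number change: cells counted by Cell Tracker Red CMTPX staining in the red channel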
Conditions: BODIPY lipid droplet fluorescence, 18-24 h; for cell number change: measured here: cell count max response, cells fed with added oleic acid
Summary of the method: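 Drosophila S3 cells loaded with oleic acid (400 uM, as added) and compounds at several concentrations; lipid droplets imaged by 488-nm laser-scanning cytometry, 500–530 nm intensity and object ratio to cell channel. Percent activity normalized to 20 uM Triacsin C.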

[1] = measured here: cell number channel AC50, cells fed with added oleic acid
[2] = measured here: lipid fluorescence (Fed channel) AC50, cells fed with added oleic acid

Structure (SMILES) | cell number change | AC50 [1] | AC50 [2]
COc1ccc(N(CC(=O)N2CCCCCC2)S(=O)(=O)c2c(C)[nH]c(=O)[nH]c2=O)cc1 | -22.9% | 0.231 µM [falling, full curve, poor fit] | 11.6 µM [falling, partial curve]
O=C(Cc1ccc(S(=O)(=O)N2CCCCC2)s1)Nc1ccc(F)c(F)c1 | – | 0.116 µM [falling, full curve, poor fit] | 25.9 µM [falling, partial curve]
Cc1ccc(/C=C/C(=O)OCC(=O)NC(C)c2ccccc2)o1 (stereo not given) | -33.5% | 0.259 µM [falling, full curve, poor fit] | –
CC(=O)Nc1ccc(NC(=O)CSc2ncc(C(=O)Nc3ccc(F)cc3)c(=O)n2C)cc1 | 51% | 2.91 µM [rising, full curve] | –
COc1ccc(Br)cc1CNC(=O)C1CCCN(c2nc3ccccc3o2)C1 (stereo not given) | -7.55% | – | –
COc1ccccc1N1CCN(C(=O)CCNC(=O)Cn2ccc3ccccc3c2=O)CC1 | -8.57% | – | –
COc1cccc(/C=N/NC(=O)C(=O)N2CCCC2)c1O | – | 0.651 µM [rising, partial curve, poor fit] | 0.58 µM [rising, partial curve, poor fit]
CCOC(=O)C1=C(CC)Nc2ccccc2N/C1=N\S(=O)(=O)c1ccccc1OC | 22.7% | – | 0.411 µM [rising, full curve, poor fit]
CCC(C)(c1ccc(C(=O)OC)s1)c1ccc(C(=O)OC)s1 | – | – | 29.1 µM [falling, single point]
COc1cccc(C(=O)Nc2ccc(NC(C)=O)cc2)c1 | 9.04% | – | –
CSCC[C@H](NC(=O)c1ccc2ccccc2c1)C(=O)N1CCC2(CC1)NCCc1[nH]cnc12 | – | – | 0.146 µM [rising, full curve]
COc1ccc(C2CC2C(=O)c2ccccn2)cc1 (stereo not given) | 46.2% | 29.1 µM [rising, single point] | 29.1 µM [rising, single point]
CC1(CCc2ccccc2)NC(=O)N(CC(=O)Nc2ccc3c(c2)OCCO3)C1=O (stereo not given) | 23.9% | – | 0.00461 µM [falling, full curve, poor fit]
Cc1ccc(NC(=O)C(C)OC(=O)Cc2c[nH]c3ccccc23)cc1S(=O)(=O)N1CCOCC1 (stereo not given) | – | 2.91 µM [rising, single point] | –
O=[N+]([O-])c1ccccc1S(=O)(=O)Oc1ccc(/C=N/n2cnnc2)cc1 | -7.98% | – | –
C[C@@H]1CC=C[C@H]2[C@H]1C(=O)N(Cc1ccccc1)[C@H]2c1ccc2ccccc2c1 | -52.5% | 20.6 µM [falling, single point] | 3.66 µM [falling, single point]
CCN(CC)C1CCN(C(=O)c2cc(COc3ccc(-n4cncn4)cc3)on2)C1 (stereo not given) | 31.5% | 8.2 µM [rising, partial curve] | –
O=C(Nc1ccc(S(=O)(=O)N2CCCC2)cc1Cl)C1=COCCO1 | 20% | – | 0.231 µM [rising, full curve]

Structure (SMILES) | cell number change | AC50 [1] | AC50 [2]
O=C(N[C@H](Cc1cc(=O)[nH]c2ccccc12)C(=O)O)c1ccc(Cl)cc1 | 24.4% | – | –
O=C(C1=C(O)C(=O)N(Cc2ccco2)C1c1cccnc1)c1cc2ccccc2o1 (stereo not given) | -15.3% | – | 0.0058 µM [rising, full curve]
O=C(Nc1ccccc1O)c1ccccc1O | -18.6% | – | 0.731 µM [rising, full curve, poor fit]
CCC(C)NC(=O)c1ccccc1C(=O)NC(C)CC (stereo not given) | -36.9% | 20.6 µM [falling, partial curve, poor fit] | 29.1 µM [falling, single point]
N#CCCN(C(=O)COc1ccc(Br)cc1F)c1ccc(F)cc1 | 19.4% | – | –
NC(=O)c1ccc(-c2nnn(CC(=O)Nc3cccc(S(=O)(=O)N4CCCC4)c3)n2)cc1 | -6.55% | – | 29.1 µM [falling, single point]
COc1cccc(C2(O)CCN(C(=O)c3cccs3)CC2)c1 | -16.4% | – | 2.59 µM [rising, single point]
C=CCOC(=O)COc1ccc2c(C)c(CC)c(=O)oc2c1 | -51.2% | 3.66 µM [falling, full curve] | 3.66 µM [falling, full curve]
CCN(CC)c1ccc(S(=O)(=O)N2CCOCC2)cc1NC(=O)CSc1nnc(N)s1 | -95.9% | 0.00517 µM [falling, full curve, poor fit] | 0.00517 µM [falling, full curve, poor fit]
CCCCN=CC1=C(O)C(C(=O)OC)C(C)(C)CC1=O (stereo not given) | -204% | 23.1 µM [falling, partial curve] | 6.51 µM [falling, single point]
O=C(NC1CCCCC1)NC1CC2CCC(C1)N2C(=O)NCc1ccccc1 (stereo not given) | -84.4% | 23.1 µM [falling, single point] | 23.1 µM [falling, single point]
CC(=O)Nc1ccc2c(c1)nc(CCN1CCOCC1)n2C | -43.7% | 2.31 µM [falling, full curve] | –
C[C@]1(CC/C(=C/CO)CO)[C@H](CO)CC[C@@]23COC(=O)C2=CCC[C@@H]31 | 20.5% | – | 23.1 µM [rising, single point]
Cc1c(C(=O)OCC(=O)N(C)c2ccccc2)cccc1[N+](=O)[O-] | – | – | 6.51 µM [rising, single point]
COc1c(C)cc(C(=O)C2CCCN(C(=O)c3ccc4cc[nH]c4c3)C2)cc1C (stereo not given) | -34.5% | 29.1 µM [falling, single point] | 29.1 µM [falling, single point]
Cc1ccc2[nH]c(C(=O)Nc3ccc(F)cc3)cc2c1 | -21.9% | – | 29.1 µM [falling, single point]
CSc1cccc(NC(=O)C2CCCN(c3ncnc4c3nc3n4CCCCC3)C2)c1 (stereo not given) | -2.72% | – | 6.51 µM [rising, partial curve, poor fit]
O=C(c1ccc(CS(=O)c2ccccc2Cl)o1)N1CCOCC1 (stereo not given) | -21.2% | – | –

Eight structures out of the list, arranged by heavy-atom count, smallest number first:
Structure (SMILES) | cell number change | AC50 [1] | AC50 [2]
O=C(Nc1ccccc1O)c1ccccc1O | -18.6% | – | 0.731 µM [rising, full curve, poor fit]
CCCCN=CC1=C(O)C(C(=O)OC)C(C)(C)CC1=O (stereo not given) | -204% | 23.1 µM [falling, partial curve] | 6.51 µM [falling, single point]
COc1cccc(C2(O)CCN(C(=O)c3cccs3)CC2)c1 | -16.4% | – | 2.59 µM [rising, single point]
O=C(c1ccc(CS(=O)c2ccccc2Cl)o1)N1CCOCC1 (stereo not given) | -21.2% | – | –
Cc1c(C(=O)OCC(=O)N(C)c2ccccc2)cccc1[N+](=O)[O-] | – | – | 6.51 µM [rising, single point]
O=C(N[C@H](Cc1cc(=O)[nH]c2ccccc12)C(=O)O)c1ccc(Cl)cc1 | 24.4% | – | –
O=C(C1=C(O)C(=O)N(Cc2ccco2)C1c1cccnc1)c1cc2ccccc2o1 (stereo not given) | -15.3% | – | 0.0058 µM [rising, full curve]
CSc1cccc(NC(=O)C2CCCN(c3ncnc4c3nc3n4CCCCC3)C2)c1 (stereo not given) | -2.72% | – | 6.51 µM [rising, partial curve, poor fit]
